PubChem BioAssay AID493246 – Drosophila RNAi Screening Center | 2011

Purpose: 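Identify essential fly genes by loss of cell viability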 (primary screen)
Cell system: Drosophila Kc and S2R+ cells
Reagent: long dsRNA against Drosophila genes
Detection: 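Raw, unnormalised count of remaining cells in each well; per-plate z-scores of cell number underlie the calls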
Direction: Kc cell number and S2R+ cell number: higher = more cells remaining
Active means: 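Counted as a hit if cell number falls by a z-score of at least 3 within its plate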
The screen tested about 21,000 reagents; below is an unselected part of those with a known target gene and a result. Over the whole deposit, 429 (2%) were called active. 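Values are raw and not normalised between plates; calls rest on per-plate z-scores that were not deposited.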 A number with no mark means an inactive call. The numbers tell different reagents against one gene apart. A plus sign joins genes that one reagent is predicted to hit. Reagent sequences are not shown. The record does not give: the amount of reagent, the time to read-out.

With Rab9Db + Rab9D + Rab9Fa + 1 more, what was measured?
Kc cell number, rep 1: 1.42e6; Kc cell number, rep 2: 1.78e6; S2R+ cell number, rep 1: 1.11e6; S2R+ cell number, rep 2: 1.19e6

For wcd, what does the deposit list?
Kc cell number, rep 1: 1.39e6; Kc cell number, rep 2: 1.39e6; S2R+ cell number, rep 1: 1.17e6; S2R+ cell number, rep 2: 1.27e6

What is on record for CG17362?
Kc cell number, rep 1: 1.67e6; Kc cell number, rep 2: 1.63e6; S2R+ cell number, rep 1: 1.20e6; S2R+ cell number, rep 2: 1.39e6

For zen2, what does the deposit list?
Kc cell number, rep 1: 1.29e6; Kc cell number, rep 2: 1.43e6; S2R+ cell number, rep 1: 1.19e6; S2R+ cell number, rep 2: 1.27e6

For CG10062, how do the results read?
Kc cell number, rep 1: 1.39e6; Kc cell number, rep 2: 1.41e6; S2R+ cell number, rep 1: 1.20e6; S2R+ cell number, rep 2: 1.21e6

Which result is listed for NaCP60E?
Kc cell number, rep 1: 1.49e6; Kc cell number, rep 2: 1.47e6; S2R+ cell number, rep 1: 1.16e6; S2R+ cell number, rep 2: 1.18e6

How did the screen score Sik2?
Kc cell number, rep 1: 1.53e6; Kc cell number, rep 2: 1.52e6; S2R+ cell number, rep 1: 1.10e6; S2R+ cell number, rep 2: 1.19e6

With acs, how do the results read?
Kc cell number, rep 1: 1.53e6; Kc cell number, rep 2: 1.31e6; S2R+ cell number, rep 1: 9.61e5; S2R+ cell number, rep 2: 1.36e6

For CG33124, what does the deposit list?
Kc cell number, rep 1: 1.78e6; Kc cell number, rep 2: 1.78e6; S2R+ cell number, rep 1: 1.10e6; S2R+ cell number, rep 2: 1.16e6

With caps, how do the results read?
Kc cell number, rep 1: 1.22e6; Kc cell number, rep 2: 1.34e6; S2R+ cell number, rep 1: 1.25e6; S2R+ cell number, rep 2: 1.31e6

For fbp, how do the results read?
Kc cell number, rep 1: 1.51e6; Kc cell number, rep 2: 1.55e6; S2R+ cell number, rep 1: 1.44e6; S2R+ cell number, rep 2: 1.47e6

What did the screen give for L (retired record) #1?
Kc cell number, rep 1: 1.49e6; Kc cell number, rep 2: 1.46e6; S2R+ cell number, rep 1: 1.15e6; S2R+ cell number, rep 2: 1.18e6

With L (retired record) #2, how do the results read?
Kc cell number, rep 1: 1.49e6; Kc cell number, rep 2: 1.48e6; S2R+ cell number, rep 1: 9.63e5; S2R+ cell number, rep 2: 9.75e5

What is on record for CG14102?
Kc cell number, rep 1: 1.30e6; Kc cell number, rep 2: 1.36e6; S2R+ cell number, rep 1: 1.26e6; S2R+ cell number, rep 2: 1.34e6

For PIG-B, what does the deposit list?
Kc cell number, rep 1: 1.34e6; Kc cell number, rep 2: 1.53e6; S2R+ cell number, rep 1: 1.06e6; S2R+ cell number, rep 2: 1.17e6

For mRpS7, what was measured?
Kc cell number, rep 1: 1.48e6; Kc cell number, rep 2: 1.52e6; S2R+ cell number, rep 1: 1.09e6; S2R+ cell number, rep 2: 1.22e6

For CG14645, what does the deposit list?
Kc cell number, rep 1: 1.29e6; Kc cell number, rep 2: 1.32e6; S2R+ cell number, rep 1: 1.26e6; S2R+ cell number, rep 2: 1.32e6

For CG10702, what was measured?
Kc cell number, rep 1: 1.27e6; Kc cell number, rep 2: 1.34e6; S2R+ cell number, rep 1: 1.25e6; S2R+ cell number, rep 2: 1.23e6

How did the screen score fzo?
Kc cell number, rep 1: 1.44e6; Kc cell number, rep 2: 1.43e6; S2R+ cell number, rep 1: 1.01e6; S2R+ cell number, rep 2: 1.08e6

With EMC1, what does the deposit list?
Kc cell number, rep 1: 1.65e6; Kc cell number, rep 2: 1.68e6; S2R+ cell number, rep 1: 1.23e6; S2R+ cell number, rep 2: 1.29e6

With Sema1a, what was measured?
Kc cell number, rep 1: 1.61e6; Kc cell number, rep 2: 1.63e6; S2R+ cell number, rep 1: 1.30e6; S2R+ cell number, rep 2: 1.50e6

What is on record for Iml1?
Kc cell number, rep 1: 1.36e6; Kc cell number, rep 2: 1.39e6; S2R+ cell number, rep 1: 1.09e6; S2R+ cell number, rep 2: 1.13e6

With CG14352, what was measured?
Kc cell number, rep 1: 1.66e6; Kc cell number, rep 2: 1.63e6; S2R+ cell number, rep 1: 1.08e6; S2R+ cell number, rep 2: 1.26e6

For RpL10Ab, how do the results read?
Kc cell number, rep 1: 1.01e6 (active); Kc cell number, rep 2: 9.98e5; S2R+ cell number, rep 1: 6.66e5; S2R+ cell number, rep 2: 7.87e5

With gogo #1, what does the deposit list?
Kc cell number, rep 1: 1.53e6; Kc cell number, rep 2: 1.73e6; S2R+ cell number, rep 1: 1.06e6; S2R+ cell number, rep 2: 1.16e6

With gogo #2, how do the results read?
Kc cell number, rep 1: 1.46e6; Kc cell number, rep 2: 1.62e6; S2R+ cell number, rep 1: 1.22e6; S2R+ cell number, rep 2: 1.34e6

With Datp, what does the deposit list?
Kc cell number, rep 1: 1.49e6; Kc cell number, rep 2: 1.49e6; S2R+ cell number, rep 1: 9.91e5; S2R+ cell number, rep 2: 1.08e6

Ordered by “S2R+ cell number, rep 1” (low to high): 3 of the entries above
L (retired record) #1: Kc cell number, rep 1 = 1.49e6; Kc cell number, rep 2 = 1.46e6; S2R+ cell number, rep 1 = 1.15e6; S2R+ cell number, rep 2 = 1.18e6
caps: Kc cell number, rep 1 = 1.22e6; Kc cell number, rep 2 = 1.34e6; S2R+ cell number, rep 1 = 1.25e6; S2R+ cell number, rep 2 = 1.31e6
fbp: Kc cell number, rep 1 = 1.51e6; Kc cell number, rep 2 = 1.55e6; S2R+ cell number, rep 1 = 1.44e6; S2R+ cell number, rep 2 = 1.47e6
